# According to the supplement of paper PMC10849652:
# By UniProt entry, the sequences of proteins in these tests, tags left out. Where a name states a change or a piece, a line headed by the entry shows the natural chain unless it says otherwise.
# UniProt Q14012: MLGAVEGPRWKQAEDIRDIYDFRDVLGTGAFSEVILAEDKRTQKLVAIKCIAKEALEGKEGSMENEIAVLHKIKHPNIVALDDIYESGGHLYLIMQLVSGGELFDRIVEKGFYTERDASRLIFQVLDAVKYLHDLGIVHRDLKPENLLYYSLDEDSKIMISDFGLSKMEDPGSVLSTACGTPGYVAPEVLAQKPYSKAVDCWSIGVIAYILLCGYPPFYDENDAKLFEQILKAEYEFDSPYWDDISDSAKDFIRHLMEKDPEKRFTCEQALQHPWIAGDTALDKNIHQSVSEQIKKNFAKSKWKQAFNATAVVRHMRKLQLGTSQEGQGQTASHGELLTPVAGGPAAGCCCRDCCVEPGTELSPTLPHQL
# UniProt Q9BTV7: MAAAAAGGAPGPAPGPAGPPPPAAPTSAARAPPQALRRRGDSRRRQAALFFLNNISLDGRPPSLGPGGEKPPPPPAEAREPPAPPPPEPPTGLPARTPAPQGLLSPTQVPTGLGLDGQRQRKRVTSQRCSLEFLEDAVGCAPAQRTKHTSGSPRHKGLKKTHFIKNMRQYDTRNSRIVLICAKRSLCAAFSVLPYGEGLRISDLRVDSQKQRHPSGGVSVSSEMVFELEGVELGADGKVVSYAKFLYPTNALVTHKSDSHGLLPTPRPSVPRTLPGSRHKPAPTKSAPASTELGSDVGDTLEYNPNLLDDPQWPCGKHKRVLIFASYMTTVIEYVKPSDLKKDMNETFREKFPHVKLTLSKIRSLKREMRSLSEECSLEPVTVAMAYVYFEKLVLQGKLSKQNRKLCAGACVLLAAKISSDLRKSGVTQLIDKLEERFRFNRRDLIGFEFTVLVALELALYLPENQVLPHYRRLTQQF
# UniProt Q6P1S2: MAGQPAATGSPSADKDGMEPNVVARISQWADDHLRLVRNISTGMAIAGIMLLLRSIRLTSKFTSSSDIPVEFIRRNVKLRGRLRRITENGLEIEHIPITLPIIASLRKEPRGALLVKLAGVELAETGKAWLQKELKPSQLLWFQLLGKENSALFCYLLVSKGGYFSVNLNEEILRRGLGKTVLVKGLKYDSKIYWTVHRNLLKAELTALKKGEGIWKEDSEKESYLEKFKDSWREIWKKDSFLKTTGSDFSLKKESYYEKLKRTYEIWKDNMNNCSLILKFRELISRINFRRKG
# UniProt Q5SQH8: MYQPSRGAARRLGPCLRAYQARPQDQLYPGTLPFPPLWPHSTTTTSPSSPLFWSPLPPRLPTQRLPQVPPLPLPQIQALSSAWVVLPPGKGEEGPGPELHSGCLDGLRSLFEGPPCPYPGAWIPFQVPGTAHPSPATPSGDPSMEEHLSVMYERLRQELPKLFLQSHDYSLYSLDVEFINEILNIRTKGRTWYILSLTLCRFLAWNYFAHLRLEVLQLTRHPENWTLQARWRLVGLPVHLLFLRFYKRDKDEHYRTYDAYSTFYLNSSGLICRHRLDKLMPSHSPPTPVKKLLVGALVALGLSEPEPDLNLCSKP
# UniProt Q9UFG5: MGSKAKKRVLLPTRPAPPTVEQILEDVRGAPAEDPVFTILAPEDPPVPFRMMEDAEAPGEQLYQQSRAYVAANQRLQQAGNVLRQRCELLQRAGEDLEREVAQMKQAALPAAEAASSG
# UniProt Q96MH7: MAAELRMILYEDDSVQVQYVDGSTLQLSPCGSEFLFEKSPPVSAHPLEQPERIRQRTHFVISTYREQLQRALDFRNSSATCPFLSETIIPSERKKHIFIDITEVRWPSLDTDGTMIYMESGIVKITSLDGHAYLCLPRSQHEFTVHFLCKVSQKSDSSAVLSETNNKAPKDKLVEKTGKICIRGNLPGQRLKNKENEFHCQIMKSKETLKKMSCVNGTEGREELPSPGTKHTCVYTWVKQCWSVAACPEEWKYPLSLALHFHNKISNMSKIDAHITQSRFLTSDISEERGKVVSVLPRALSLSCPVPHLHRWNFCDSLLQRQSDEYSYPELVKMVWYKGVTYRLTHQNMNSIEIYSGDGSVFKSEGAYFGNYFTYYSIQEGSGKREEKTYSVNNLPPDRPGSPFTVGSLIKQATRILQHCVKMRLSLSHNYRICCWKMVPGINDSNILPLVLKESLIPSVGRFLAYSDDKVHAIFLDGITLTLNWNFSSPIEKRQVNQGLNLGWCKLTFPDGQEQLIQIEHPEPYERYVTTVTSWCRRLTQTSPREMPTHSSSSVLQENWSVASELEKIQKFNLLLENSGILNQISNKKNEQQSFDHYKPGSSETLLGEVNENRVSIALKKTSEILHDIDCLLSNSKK
# UniProt Q9H9S4: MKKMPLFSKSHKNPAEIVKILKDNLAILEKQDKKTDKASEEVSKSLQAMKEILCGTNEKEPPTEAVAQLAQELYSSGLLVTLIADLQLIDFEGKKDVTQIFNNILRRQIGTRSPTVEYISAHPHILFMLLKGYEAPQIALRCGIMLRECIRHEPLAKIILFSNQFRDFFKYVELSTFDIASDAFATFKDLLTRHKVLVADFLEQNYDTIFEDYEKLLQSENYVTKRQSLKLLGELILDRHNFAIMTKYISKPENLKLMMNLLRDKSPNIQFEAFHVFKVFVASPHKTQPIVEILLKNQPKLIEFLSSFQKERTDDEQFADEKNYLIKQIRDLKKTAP
# UniProt Q0VDD7: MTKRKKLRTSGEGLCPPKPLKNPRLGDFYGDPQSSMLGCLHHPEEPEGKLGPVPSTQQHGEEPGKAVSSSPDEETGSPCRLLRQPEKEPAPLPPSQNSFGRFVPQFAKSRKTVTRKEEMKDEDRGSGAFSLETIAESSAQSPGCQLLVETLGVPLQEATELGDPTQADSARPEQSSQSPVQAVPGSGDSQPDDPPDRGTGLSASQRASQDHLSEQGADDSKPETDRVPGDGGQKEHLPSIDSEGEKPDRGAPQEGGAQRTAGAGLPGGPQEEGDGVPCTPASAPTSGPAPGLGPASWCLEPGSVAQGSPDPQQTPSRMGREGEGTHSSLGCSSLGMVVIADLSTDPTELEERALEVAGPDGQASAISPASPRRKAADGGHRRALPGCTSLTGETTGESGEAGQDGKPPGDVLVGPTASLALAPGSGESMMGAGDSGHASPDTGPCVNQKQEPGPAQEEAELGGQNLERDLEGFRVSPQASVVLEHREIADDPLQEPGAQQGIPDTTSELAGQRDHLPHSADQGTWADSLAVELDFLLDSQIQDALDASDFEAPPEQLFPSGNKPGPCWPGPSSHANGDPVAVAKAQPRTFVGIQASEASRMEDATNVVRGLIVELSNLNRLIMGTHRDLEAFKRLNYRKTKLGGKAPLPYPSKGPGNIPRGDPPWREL
# UniProt Q5SNV9: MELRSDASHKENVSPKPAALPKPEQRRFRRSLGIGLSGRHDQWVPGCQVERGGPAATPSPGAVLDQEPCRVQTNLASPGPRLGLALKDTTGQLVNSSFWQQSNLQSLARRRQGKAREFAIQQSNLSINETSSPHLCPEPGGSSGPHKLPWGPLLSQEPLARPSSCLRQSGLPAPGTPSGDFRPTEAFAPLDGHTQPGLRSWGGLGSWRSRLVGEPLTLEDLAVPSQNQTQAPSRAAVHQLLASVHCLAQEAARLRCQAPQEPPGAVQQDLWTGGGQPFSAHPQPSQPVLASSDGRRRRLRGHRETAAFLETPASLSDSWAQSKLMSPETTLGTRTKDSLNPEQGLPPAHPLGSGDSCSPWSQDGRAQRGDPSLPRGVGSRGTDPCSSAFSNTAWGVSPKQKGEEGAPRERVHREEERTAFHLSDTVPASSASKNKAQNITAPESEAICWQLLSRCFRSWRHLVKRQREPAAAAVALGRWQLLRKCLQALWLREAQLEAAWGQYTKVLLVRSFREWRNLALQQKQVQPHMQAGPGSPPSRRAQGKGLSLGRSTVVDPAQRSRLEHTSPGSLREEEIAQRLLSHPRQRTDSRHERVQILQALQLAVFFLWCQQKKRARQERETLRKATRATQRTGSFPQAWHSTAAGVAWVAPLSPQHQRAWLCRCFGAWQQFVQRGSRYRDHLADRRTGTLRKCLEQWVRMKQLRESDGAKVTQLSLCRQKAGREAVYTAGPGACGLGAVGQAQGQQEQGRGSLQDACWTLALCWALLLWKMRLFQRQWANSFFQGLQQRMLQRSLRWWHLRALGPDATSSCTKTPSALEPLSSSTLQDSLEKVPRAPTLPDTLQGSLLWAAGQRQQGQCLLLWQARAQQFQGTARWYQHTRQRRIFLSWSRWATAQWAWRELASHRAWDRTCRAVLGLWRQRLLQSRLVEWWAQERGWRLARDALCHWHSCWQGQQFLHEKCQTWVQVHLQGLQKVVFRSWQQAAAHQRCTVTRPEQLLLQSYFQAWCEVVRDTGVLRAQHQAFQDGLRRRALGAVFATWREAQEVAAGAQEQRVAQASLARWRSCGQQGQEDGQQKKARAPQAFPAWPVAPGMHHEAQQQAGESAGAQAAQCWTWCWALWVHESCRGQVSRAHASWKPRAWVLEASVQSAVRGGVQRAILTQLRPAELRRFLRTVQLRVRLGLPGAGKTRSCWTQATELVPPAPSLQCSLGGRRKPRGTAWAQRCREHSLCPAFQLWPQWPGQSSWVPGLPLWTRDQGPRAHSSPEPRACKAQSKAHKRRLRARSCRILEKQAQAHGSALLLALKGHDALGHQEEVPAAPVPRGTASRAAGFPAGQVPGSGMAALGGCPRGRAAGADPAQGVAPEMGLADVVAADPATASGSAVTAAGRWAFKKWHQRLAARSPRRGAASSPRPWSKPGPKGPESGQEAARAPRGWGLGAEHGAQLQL
# UniProt Q13554, whole entry, looked up: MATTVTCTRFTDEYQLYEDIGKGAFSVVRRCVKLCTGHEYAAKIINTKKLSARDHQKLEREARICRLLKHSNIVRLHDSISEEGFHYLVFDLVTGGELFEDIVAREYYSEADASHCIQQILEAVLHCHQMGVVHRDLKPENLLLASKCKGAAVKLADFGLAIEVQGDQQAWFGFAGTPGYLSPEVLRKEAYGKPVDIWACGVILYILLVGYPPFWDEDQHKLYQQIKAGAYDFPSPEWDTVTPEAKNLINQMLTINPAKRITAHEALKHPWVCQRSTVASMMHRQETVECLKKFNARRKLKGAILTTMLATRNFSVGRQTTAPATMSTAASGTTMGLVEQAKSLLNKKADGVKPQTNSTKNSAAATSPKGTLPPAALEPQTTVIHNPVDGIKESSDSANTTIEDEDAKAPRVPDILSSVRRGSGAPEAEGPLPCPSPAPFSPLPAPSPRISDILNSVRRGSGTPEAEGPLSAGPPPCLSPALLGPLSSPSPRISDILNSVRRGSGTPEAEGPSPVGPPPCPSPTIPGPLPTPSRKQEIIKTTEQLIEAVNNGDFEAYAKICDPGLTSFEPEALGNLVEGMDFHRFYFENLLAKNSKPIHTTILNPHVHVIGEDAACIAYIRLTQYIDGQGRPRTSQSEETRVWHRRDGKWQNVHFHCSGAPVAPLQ
# UniProt Q32NC0: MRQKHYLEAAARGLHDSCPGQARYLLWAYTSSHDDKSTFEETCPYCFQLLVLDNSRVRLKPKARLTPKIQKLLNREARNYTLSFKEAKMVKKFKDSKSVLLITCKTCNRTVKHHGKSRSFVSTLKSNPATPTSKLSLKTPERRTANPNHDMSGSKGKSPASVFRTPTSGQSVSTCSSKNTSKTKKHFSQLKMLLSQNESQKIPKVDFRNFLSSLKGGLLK
# UniProt Q9BSF0: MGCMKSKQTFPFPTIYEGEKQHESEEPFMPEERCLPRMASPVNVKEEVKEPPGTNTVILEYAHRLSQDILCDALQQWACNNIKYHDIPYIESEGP
# UniProt Q96HA4: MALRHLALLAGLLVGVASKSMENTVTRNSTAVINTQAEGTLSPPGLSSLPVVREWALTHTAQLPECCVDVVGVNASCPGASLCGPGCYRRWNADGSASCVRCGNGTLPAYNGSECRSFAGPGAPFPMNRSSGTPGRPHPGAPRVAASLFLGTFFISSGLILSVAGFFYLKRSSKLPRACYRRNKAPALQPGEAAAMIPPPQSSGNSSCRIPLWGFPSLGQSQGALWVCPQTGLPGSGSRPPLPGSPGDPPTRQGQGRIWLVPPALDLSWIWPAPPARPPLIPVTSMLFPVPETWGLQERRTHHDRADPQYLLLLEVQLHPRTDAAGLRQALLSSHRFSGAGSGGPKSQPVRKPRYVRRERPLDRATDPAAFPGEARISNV
# UniProt Q16581: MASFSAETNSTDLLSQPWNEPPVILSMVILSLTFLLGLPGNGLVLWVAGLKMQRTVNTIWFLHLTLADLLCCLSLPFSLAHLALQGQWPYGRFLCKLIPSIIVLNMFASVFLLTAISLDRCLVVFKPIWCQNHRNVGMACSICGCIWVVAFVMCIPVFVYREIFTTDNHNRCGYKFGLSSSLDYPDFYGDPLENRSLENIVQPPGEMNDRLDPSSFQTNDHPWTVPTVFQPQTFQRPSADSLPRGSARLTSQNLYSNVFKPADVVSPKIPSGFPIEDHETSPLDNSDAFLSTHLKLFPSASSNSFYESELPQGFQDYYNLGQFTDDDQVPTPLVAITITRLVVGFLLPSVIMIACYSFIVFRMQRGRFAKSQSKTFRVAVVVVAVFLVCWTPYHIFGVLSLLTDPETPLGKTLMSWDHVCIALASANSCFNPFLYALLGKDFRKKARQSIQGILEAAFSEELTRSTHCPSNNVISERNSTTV
# The list shows a part of the results.
# Key:
# Assay in all cases: log2 fold change, soluble protein after heating vs DMSO (PISA); higher = thermal stabilisation; K562 lysate, 10 uM; active = over 0.2 and 3.5 SD of the protein, either way, in both replicates (recomputed)
# [1] = compound: CCCS(=O)(=O)Nc1ccc(F)c(C(=O)c2c[nH]c3ncc(-c4ccc(Cl)cc4)cc23)c1F [vemurafenib]
# Outline: (§1)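 K562 pellets were dounce-homogenised in PBS pH 7.4 with 1 mM MgCl2, and the crude extract at 1 mg/mL protein was treated with 10 μM compound for 30 min. Aliquots were heated for 3 min across 48°C-58°C, pooled, and brought to 0.5% NP-40 at 4°C; soluble protein was the supernatant after 21,000xg for 90 min. Soluble protein was quantified by TMTpro 16plex LC-MS/MS with channel sums equalised, and reported as log2 fold change in thermal stability against DMSO controls, with values from duplicates.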
# [2] = compound: CCN(CCCOc1ccc2c(Nc3cc(CC(=O)Nc4cccc(F)c4)[nH]n3)ncnc2c1)CCOP(=O)(O)O [barasertib]
# Outline: as §1
# [3] = compound: CC[C@@H]1C(=O)N(C)c2cnc(Nc3ccc(C(=O)NC4CCN(C)CC4)cc3OC)nc2N1C1CCCC1
# Outline: as §1
# [4] = compound: CC[C@@H]1C(=O)N(C)c2cnc(Nc3ccc(C(=O)N[C@H]4CC[C@H](N5CCN(CC6CC6)CC5)CC4)cc3OC)nc2N1C(C)C [volasertib]
# Outline: as §1
# [5] = compound: CCn1c(C(=O)N(C2CC2)C2CC2)cc2c3c(ncn3C)c(Nc3cc(C)n(C)n3)nc21
# Outline: as §1
# [6] = compound: CCn1cc(-c2ccnc3[nH]c(-c4cccc(CN(C)C)c4)cc23)c(-c2ccc(NC(=O)N(C)C)cc2)n1
# Outline: as §1
# [7] = compound: CN1CCC(CNc2ccc3ncc(-c4cccc(OC(F)(F)F)c4)n3n2)CC1
# Outline: as §1
# [8] = compound: CN1CCN(CCOc2cc(OC3CCOCC3)c3c(Nc4c(Cl)ccc5c4OCO5)ncnc3c2)CC1 [saracatinib]
# Outline: as §1
# [9] = compound: CN1CCN(c2nc(C3=C(c4c[nH]c5ccccc45)C(=O)NC3=O)c3ccccc3n2)CC1 [sotrastaurin]
# Outline: as §1
# [10] = compound: CCCS(=O)(=O)Nc1ccc(F)c(C(=O)c2c[nH]c3ncc(Cl)cc23)c1F
# Outline: as §1
Target,log2 fold change [1],log2 fold change [2],log2 fold change [3],log2 fold change [4],log2 fold change [5],log2 fold change [6],log2 fold change [7],log2 fold change [8],log2 fold change [9],log2 fold change [10]
CAMK1 (UniProt Q14012),inactive: -0.094,inactive: 0.027,inactive: 0.106,inactive: -0.018,inactive: -0.06,inactive: -0.095,inactive: 0.272,inactive: -0.061,inactive: -0.016,–
CABLES2 (UniProt Q9BTV7),inactive: 0.01,inactive: 0.177,inactive: 0.012,inactive: -0.029,–,–,–,–,inactive: -0.162,inactive: 0.114
C3orf33 (UniProt Q6P1S2),inactive: 0.295,inactive: -0.04,–,inactive: 0.063,inactive: -0.056,active: -0.823,inactive: 0.216,inactive: 0.045,inactive: 0.047,inactive: -0.043
C6orf136 isoform 4 (UniProt Q5SQH8),inactive: -0.228,–,inactive: 0.178,inactive: -0.031,inactive: 0.078,–,–,inactive: -0.103,–,inactive: -0.114
C19orf25 (UniProt Q9UFG5),inactive: 0.168,inactive: -0.014,–,inactive: 0.024,inactive: -0.002,inactive: 0.075,inactive: -0.114,inactive: -0.017,inactive: 0.009,inactive: -0.05
C9orf72 (UniProt Q96LT7),–,inactive: -0.091,inactive: 0.034,inactive: 0.088,inactive: 0.022,inactive: -0.065,inactive: -0.015,inactive: 0.082,inactive: 0.011,inactive: -0.03
C5orf34 (UniProt Q96MH7),inactive: 0,–,inactive: 0.015,–,–,–,–,inactive: 0.127,–,–
CAB39L (UniProt Q9H9S4),inactive: -0.096,inactive: 0.029,–,inactive: -0.028,inactive: -0.004,inactive: -0.047,inactive: 0.033,inactive: 0.015,inactive: -0.004,inactive: 0.049
CAD (UniProt H7BZB3),inactive: -0.063,–,inactive: 0.144,–,–,inactive: -0.02,inactive: -0.027,–,–,–
C19orf57 (UniProt Q0VDD7),inactive: -0.185,–,–,–,–,inactive: 0.07,inactive: -0.017,inactive: 0,–,–
C1orf167 isoform 2 (UniProt Q5SNV9),inactive: 0.048,inactive: 0.088,–,inactive: 0.021,inactive: -0.12,inactive: -0.259,inactive: 0.066,inactive: 0.048,inactive: 0.19,inactive: -0.084
CAMK2B (UniProt Q13554),inactive: 0.011,inactive: 0.014,–,inactive: -0.145,inactive: 0.022,inactive: -0.021,inactive: 0.049,inactive: -0.077,–,inactive: -0.058
CACUL1 (UniProt Q86Y37),inactive: 0.04,–,inactive: -0.04,inactive: 0.106,inactive: -0.072,inactive: 0.012,inactive: -0.111,inactive: -0.026,inactive: 0.103,inactive: 0.053
C18orf21 (UniProt Q32NC0),–,inactive: -0.031,–,inactive: 0.065,inactive: 0.006,inactive: -0.06,inactive: 0.015,inactive: -0.025,inactive: 0.015,inactive: 0.054
CA1 (UniProt E5RIF9),–,–,inactive: 0.153,–,–,inactive: -0.111,inactive: 0.005,–,–,–
C2orf88 (UniProt Q9BSF0),–,–,–,–,inactive: 0.02,inactive: 0.309,inactive: -0.034,–,inactive: -0.058,–
C1orf159 isoform 4 (UniProt Q96HA4),–,–,inactive: 0.014,–,–,inactive: 0.063,inactive: 0.028,inactive: 0.125,–,–
C3AR1 (UniProt Q16581),–,inactive: -0.172,–,–,–,active: -0.664,inactive: -0.286,–,inactive: -0.004,–

# Reprinted at random: two records from the list.
Target,log2 fold change [1],log2 fold change [2],log2 fold change [3],log2 fold change [4],log2 fold change [5],log2 fold change [6],log2 fold change [7],log2 fold change [8],log2 fold change [9],log2 fold change [10]
C2orf88 (UniProt Q9BSF0),–,–,–,–,inactive: 0.02,inactive: 0.309,inactive: -0.034,–,inactive: -0.058,–
C1orf159 isoform 4 (UniProt Q96HA4),–,–,inactive: 0.014,–,–,inactive: 0.063,inactive: 0.028,inactive: 0.125,–,–
